# How the values were obtained:
# [1] = system: type II collagen (Col2a1); assay: Col2a1 relative expression in osteoarthritic chondrocytes (qRT-PCR); type: cell-based, human; settings: low passage osteoarthritic chondrocytes, day 28
# SOX9 versus RUNX2 = assay: Relative expression of SOX9 versus RUNX2 in osteoarthritic chondrocytes; type: cell-based, human; settings: low passage osteoarthritic chondrocytes; 7, 14, 28 days
compound,measurement,setting,value
"C[C@@H]1C[C@H]2[C@@H]3CCC4=CC(=O)C=C[C@]4(C)[C@@]3(F)[C@@H](O)C[C@]2(C)[C@@]1(O)C(=O)COP(=O)(O)O [Dxp, dexamethasone phosphate, reference compound]",relative expression of Col2a1,[1],reduction
same,ratio of SOX9/RUNX2,SOX9 versus RUNX2,reduced
